## Percent effect of library compounds

Data taken from ChEMBL document CHEMBL3988442, “University of Dundee, Small-Polar-MMV Screening Library” (2021).

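Growth of Mycobacterium tuberculosis over 4 days (cholesterol / DPPC medium with tyloxapol); the read-out is not stated. Compounds at 50 µM. The record gives no direction; compounds that gave an IC50 in retests scored well above the rest, so higher reads as more growth inhibition. Size under these conditions: about 69,000 compounds, about 370 of them at 50% or above in at least one test.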

Results are given as percent effect.
How 0% and 100% were set is not recorded. Most values in the screen are low, and negative values occur.
The compounds are a random part of those screened.
Two or more numbers in one place are separate tests of the same structure; such repeats can differ widely.

{"compound": "C/N=C1\\c2cc3cc(OC)ccc3n2CCN1Cc1ccccc1.O=C(O)C(F)(F)F", "percent effect": -0.9125}
{"compound": "CCc1nc(CSC2CCCN(c3cnn(C)c3)C2=O)cs1", "stereo": "stereo not given", "percent effect": -1.39}
{"compound": "O=C(C(NCc1cccc(F)c1F)c1ccccc1)N1CCOCC1", "stereo": "stereo not given", "percent effect": -27.95}
{"compound": "[H][C@]12CC[C@]([H])(CN(C3Cc4ccccc4C3)C1)N(Cc1nc(C)no1)C2", "percent effect": -4.712}
{"compound": "Cc1ccc2c(c1)nc1n2[C@@H](CNC(=O)c2cccnc2)COC1", "percent effect": -3.681}
{"compound": "COC(=O)CNC(=O)c1cccc(C(=O)N(C)c2ccccc2)c1", "percent effect": -38.02}
{"compound": "CCS(=O)(=O)N1CCN(Cc2cccnc2)c2nc(C)ccc2C1.O=C(O)C(F)(F)F.O=C(O)C(F)(F)F", "percent effect": -7.876}
{"compound": "COc1cccc(C(O)C(=O)N(C)CCc2ccccn2)c1", "stereo": "stereo not given", "percent effect": -15.23}
{"compound": "[H][C@@]12CCN(C(=O)c3c(C)noc3C)C[C@@]1([H])O[C@H](c1nccs1)C2", "percent effect": -12.26}
{"compound": "O=C(O)C(F)(F)F.[H][C@@]12COC[C@H](C(=O)N3CCCCO3)[C@]1([H])CN(Cc1cc(C)on1)C2", "percent effect": "5.122 & -5.915"}
{"compound": "CSc1ccccc1C(=O)NCCC(O)c1ccco1", "stereo": "stereo not given", "percent effect": -18.43}
{"compound": "[H][C@@]12CCCN1CCCN(C(=O)c1cnc(-c3ccc(C)cc3)nc1O)C2", "percent effect": -9.493}
{"compound": "COC(=O)Cc1cn2cc(C(F)(F)F)ccc2n1", "percent effect": -29.5}
{"compound": "CC(C(=O)NCc1cccc(N2CCCC2=O)c1)S(C)(=O)=O", "stereo": "stereo not given", "percent effect": 3.33}
{"compound": "N#Cc1ccccc1CN1CCCCC1Cn1cncn1", "stereo": "stereo not given", "percent effect": -22.43}
{"compound": "CCc1nc(-c2cccc(C(=O)O)c2)no1", "percent effect": -19.7}
{"compound": "COc1ccsc1C(=O)Nc1cc(Cl)c(=O)n(C)c1", "percent effect": 2.818}
{"compound": "Cc1nc2ccccc2nc1CN(C)C1CCCN(c2cccnn2)C1", "stereo": "stereo not given", "percent effect": 1.255}
{"compound": "O=C(N1CCCC1)N1CCC(Nc2ccncn2)CC1", "percent effect": 6.509}
{"compound": "CCCn1cc(C(=O)NCCS(N)(=O)=O)c2ccccc21", "percent effect": -33.05}
{"compound": "CN(C)c1ncc(CN2CCOC(C(=O)Nc3ccccc3)C2)cn1", "stereo": "stereo not given", "percent effect": -24.69}
{"compound": "COc1c(C2CCCN2CC(=O)N2CCCCC2)c(C)nn1C", "stereo": "stereo not given", "percent effect": -27.36}
{"compound": "Cc1ccc(F)c(OC2(C(=O)O)CCN(C(=O)c3ccncc3)CC2)c1", "percent effect": "-15.92 & 15.17"}
{"compound": "CCN(CC1CCOCC1)C(=O)Cn1ccccc1=O", "percent effect": -4.375}
{"compound": "COc1ccc(CN(C)[C@@H]2CN(C(=O)c3cnn(C)c3)C[C@H]2O)cc1", "percent effect": 10.9}
{"compound": "Cc1nc(CN(C)S(=O)(=O)c2ccccc2C(F)(F)F)no1", "percent effect": 3.357}
{"compound": "[H][C@]12CC[C@]([H])(CN(c3nnc(C(C)C)s3)C1)N(CCC)C2", "percent effect": 6.574}
{"compound": "Cc1ccnc(NC(=O)c2c(C)oc(C)c2C)c1", "percent effect": -21.35}
{"compound": "Cn1c(=O)ccn(CC(=O)N2CCCC(n3cccn3)C2)c1=O", "stereo": "stereo not given", "percent effect": -10.3}
{"compound": "CCOc1ccc(CC(=O)N2CCN(c3nccn3C)CC2)cc1.Cl", "percent effect": -16.69}
{"compound": "Cc1ccc(-c2noc(C3CCN3C(=O)c3c(C)noc3C)n2)s1", "stereo": "stereo not given", "percent effect": "21.08 & -6.081"}
{"compound": "COc1ccc2c(c1)CC(NCCCn1nc(C)nc1C)CC2", "stereo": "stereo not given", "percent effect": -4.611}
{"compound": "CCN1CC2(CCN(CC3COCCO3)CC2)OC1=O", "stereo": "stereo not given", "percent effect": -45.67}
{"compound": "Cc1cnccc1CNCc1ccc(OC23CCCN(CC2)C3)cc1", "stereo": "stereo not given", "percent effect": 22.2}
{"compound": "CCn1cc(C(=O)NCCc2nc(-c3ccc(C)cc3)n[nH]2)c(C)n1", "percent effect": 14.83}
{"compound": "CC(C)NC(=O)c1cc2c([nH]c1=O)CC(c1cccs1)CC2=O", "stereo": "stereo not given", "percent effect": "10.82 & -10.28"}
{"compound": "CN1CCN(c2ccc(C(=O)N3CCCC(c4ncc[nH]4)C3)cc2)CC1", "stereo": "stereo not given", "percent effect": -9.948}
{"compound": "CC(C)C(=O)NCc1cccc(N2CCCCC2=O)c1", "percent effect": 13.7}
{"compound": "CC1CN(C(=O)c2ccnc(OCCN(C)C)c2)c2ccccc21", "stereo": "stereo not given", "percent effect": 3.914}
{"compound": "[H][C@@]12CS(=O)(=O)C[C@]1([H])N(C(=O)c1ncoc1C)CCN2Cc1ccccc1", "percent effect": -11.55}
{"compound": "CN1CCN(C(=O)c2cn(-c3ccc(C(F)(F)F)cn3)nn2)CC1", "percent effect": 10.1}
{"compound": "CC(C)CNC(=O)c1c(-n2cnnn2)sc2c1CCC2", "percent effect": 9.368}
{"compound": "CN(Cc1ccccc1)C(=O)CSc1ccc2c(c1)OCCO2", "percent effect": "7.698 & 5.584"}

2 of the entries, repeated:

{"compound": "CC(C)CNC(=O)c1c(-n2cnnn2)sc2c1CCC2", "percent effect": 9.368}
{"compound": "CC(C)NC(=O)c1cc2c([nH]c1=O)CC(c1cccs1)CC2=O", "stereo": "stereo not given", "percent effect": "10.82 & -10.28"}